Results deposited as PubChem BioAssay AID1671195 (Yale University, 2021).
Screen: 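Knockdowns that increase or decrease uptake of fluorescent LDL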 (primary screen). System: human Huh7 hepatoma cells. Knock-down reagent: siRNA pool against human genes, 18 nM. Time to read-out: about 2 to 2.5 days of knockdown, then 8 h LDL uptake. Challenge: DiI-labelled LDL at 30 µg/ml for 8 h, in lipoprotein-deficient serum medium. Measurement: 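Fluorescent LDL signal imaged in cells, scaled to the plate median, robust z-score for each replicate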. Scale: robust z-score: higher = more LDL uptake after knockdown. Hit rule: 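a gene counts as active if at least two replicate z-scores exceed ±2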.
In all, the deposit lists about 22,000 reagents; this is a part drawn at random. In the full data, about 1,510 (6.9%) got an active call. 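Active includes knockdowns raising or lowering LDL uptake; positive z-scores mean more uptake, negative mean less.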

For RFX6, the entry reads robust z-score, replicate 1 = 1.41; robust z-score, replicate 2 = 1.79; robust z-score, replicate 3 = 1.72; inactive. Depletion of RCOR1 came out at: robust z-score, replicate 1 = 1.45; robust z-score, replicate 2 = 0.426; robust z-score, replicate 3 = 0.959; inactive. Against LSM14A, the entry reads robust z-score, replicate 1 = -0.757; robust z-score, replicate 2 = -0.783; robust z-score, replicate 3 = 0.839; inactive. For BRIX1, the entry reads robust z-score, replicate 1 = -1.12; robust z-score, replicate 2 = -0.589; robust z-score, replicate 3 = 0.377; inactive. After knock-down of RPS20 the results were robust z-score, replicate 1 = -1.71; robust z-score, replicate 2 = -0.603; robust z-score, replicate 3 = -1.1; inactive. After knock-down of SMAD6, the screen gave robust z-score, replicate 1 = -1.31; robust z-score, replicate 2 = -0.854; robust z-score, replicate 3 = -0.95; inactive.

KIF4A scored robust z-score, replicate 1 = 1.34; robust z-score, replicate 2 = 0.935; robust z-score, replicate 3 = 0.0373; inactive. Against STYK1 the deposit lists robust z-score, replicate 1 = 0.406; robust z-score, replicate 2 = 0.227; robust z-score, replicate 3 = 0.89; inactive. For LIMK1, the values are robust z-score, replicate 1 = -1.1; robust z-score, replicate 2 = -1.66; robust z-score, replicate 3 = -1.67; inactive. After knock-down of PNLDC1 the results were robust z-score, replicate 1 = -1.47; robust z-score, replicate 2 = -1.91; robust z-score, replicate 3 = -1.74; inactive. TMEM31 showed robust z-score, replicate 1 = 0.614; robust z-score, replicate 2 = 0.261; robust z-score, replicate 3 = 0.776; inactive. Knock-down of SNX3 came out at: robust z-score, replicate 1 = -0.356; robust z-score, replicate 2 = -0.301; robust z-score, replicate 3 = 0.61; inactive.

SSTR4 showed robust z-score, replicate 1 = 1.14; robust z-score, replicate 2 = 0.828; robust z-score, replicate 3 = 1.6; inactive. FAM47C showed robust z-score, replicate 1 = -0.242; robust z-score, replicate 2 = -0.106; robust z-score, replicate 3 = 0.482; inactive. With knock-down of FAM120C, the screen gave robust z-score, replicate 1 = 0.347; robust z-score, replicate 2 = 1.75; robust z-score, replicate 3 = -1.03; inactive. Knock-down of RPL23A resulted in: robust z-score, replicate 1 = -0.54; robust z-score, replicate 2 = -0.829; robust z-score, replicate 3 = -0.33; inactive. PLEKHA4 gave robust z-score, replicate 1 = -1.26; robust z-score, replicate 2 = -1.38; robust z-score, replicate 3 = -1.36; inactive. With knock-down of PDCL3P4, the screen gave robust z-score, replicate 1 = -1.5; robust z-score, replicate 2 = -1.54; robust z-score, replicate 3 = -1.48; inactive.

After knock-down of IRF2BPL, the screen gave robust z-score, replicate 1 = -0.721; robust z-score, replicate 2 = -0.337; robust z-score, replicate 3 = 0.239; inactive. For PARP16, the entry reads robust z-score, replicate 1 = -1.14; robust z-score, replicate 2 = 0.987; robust z-score, replicate 3 = -0.349; inactive. Knock-down of CYYR1 resulted in: robust z-score, replicate 1 = -1.19; robust z-score, replicate 2 = -0.206; robust z-score, replicate 3 = -0.284; inactive. With knock-down of ATP5MC1P5, the record shows robust z-score, replicate 1 = 0.323; robust z-score, replicate 2 = 0.766; robust z-score, replicate 3 = 0.419; inactive. For OR2L2, the values are robust z-score, replicate 1 = 1.48; robust z-score, replicate 2 = 1.66; robust z-score, replicate 3 = -0.403; inactive. PMP22 gave robust z-score, replicate 1 = -1.66; robust z-score, replicate 2 = -1.43; robust z-score, replicate 3 = -1.32; inactive.

Depletion of NPNT resulted in: robust z-score, replicate 1 = 0.196; robust z-score, replicate 2 = 0.238; robust z-score, replicate 3 = 0.0548; inactive. With knock-down of PCDH12 the results were robust z-score, replicate 1 = -0.532; robust z-score, replicate 2 = -0.187; robust z-score, replicate 3 = 0.0579; inactive. For OAF, the entry reads robust z-score, replicate 1 = 0.135; robust z-score, replicate 2 = 0.0813; robust z-score, replicate 3 = 0.231; inactive. SPSB1 showed robust z-score, replicate 1 = -1.85; robust z-score, replicate 2 = -2.25; robust z-score, replicate 3 = -2.09; active. After knock-down of CSTB, the record shows robust z-score, replicate 1 = 1.11; robust z-score, replicate 2 = 1.3; robust z-score, replicate 3 = 0.572; inactive. With knock-down of SLC5A2, the screen gave robust z-score, replicate 1 = 0.346; robust z-score, replicate 2 = 1.32; robust z-score, replicate 3 = 1.14; inactive.

Sorted by “robust z-score, replicate 1” (lowest first): some entries from above
SNX3 — robust z-score, replicate 1 = -0.356; robust z-score, replicate 2 = -0.301; robust z-score, replicate 3 = 0.61; call = inactive
TMEM31 — robust z-score, replicate 1 = 0.614; robust z-score, replicate 2 = 0.261; robust z-score, replicate 3 = 0.776; call = inactive
SSTR4 — robust z-score, replicate 1 = 1.14; robust z-score, replicate 2 = 0.828; robust z-score, replicate 3 = 1.6; call = inactive
